Data: patent US20240181022A1, “AMURINS LYSINS, AND LYSIN-ANTIMICROBIAL PEPTIDE (AMP) CONSTRUCTS ACTIVE AGAINST GRAM-NEGATIVE BACTERIA” (priority 2021, published 2024)
Some of these results come from one statement about several compounds together.

System: Gram-negative bacteria biofilm
Assay: Antibiofilm activity (MBEC) against Gram-negative bacteria, incl. MDR and XDR isolates
Assay type: cell-based
Conditions: 2-hour treatments, controls, data not shown

C[C@@H](O)[C@H]1C(=O)N2C(C(=O)O)=C(S[C@@H]3CN[C@H](C(=O)N(C)C)C3)[C@H](C)[C@H]12 [meropenem, reference compound]
MBEC90: > 256 µg/mL
